Among the data in doi:10.1101/2023.02.28.527262 are binding values, retold here.

Protein sequences, listed by entry. Tags and fused reporters are not part of them. Lines headed by an entry give the natural chain unless they say otherwise; changes in a name come on top. Chains listed by the source or under a name are the forms on record and can include a tag or linker.
soluble serum stimulated 2 (sST2) (Q01638, form named): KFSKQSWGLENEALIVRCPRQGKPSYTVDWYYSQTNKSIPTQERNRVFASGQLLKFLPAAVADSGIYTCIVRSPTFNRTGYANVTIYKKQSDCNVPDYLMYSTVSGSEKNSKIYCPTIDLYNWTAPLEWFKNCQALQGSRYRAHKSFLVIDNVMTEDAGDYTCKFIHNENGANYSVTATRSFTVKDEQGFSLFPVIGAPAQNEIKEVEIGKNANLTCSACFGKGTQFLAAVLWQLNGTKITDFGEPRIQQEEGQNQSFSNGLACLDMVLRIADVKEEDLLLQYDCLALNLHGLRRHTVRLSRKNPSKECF

These are yes or no findings as the source states them, for the method shown. Some entries that bind do so weakly or less than the wild type.

The assay addresses soluble serum stimulated 2 (sST2) (UniProt Q01638). Briefly: AlphaScreen or HTRF. A general note: Alpha assays give light when donor and acceptor beads are brought close together.

B1: reduced interleukin-33 (IL-33^red), residues 112–270 (ligand, UniProt O95760 112-270)
chain: SITGISPITEYLASLSTYNDQSITFALEDESYEIYVEDLKKDEKKDKVLLSYYESQHPSNESGDGVDGKMLMVTLSPTKDFWLHANNKEHSVELHKCEKPLPDQAFFVLHNMHSNCVSFECKTDPGVFIGVKDNHLALIKVDSSENLCTENILFKLSET
B1: the binding result is recorded as “binds”.
